Assay results taken from PMC5088412.
No constants are given. Whether binding was seen depends on the method and setting. Binding seen in cells or lysates may run through a third protein. Sequences can lack the tags named with a protein.

Chains of the proteins cited; added tags and fusions are not shown.
UniProt O95816: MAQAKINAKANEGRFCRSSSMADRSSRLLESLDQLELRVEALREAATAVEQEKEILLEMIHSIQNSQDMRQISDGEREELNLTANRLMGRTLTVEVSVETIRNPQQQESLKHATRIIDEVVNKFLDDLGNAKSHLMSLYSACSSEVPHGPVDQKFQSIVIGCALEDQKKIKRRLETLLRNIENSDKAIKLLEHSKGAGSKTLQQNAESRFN

Biological target: Flag-tagged BAG2 (UniProt O95816)
Experiment: co-IP; p53-null H1299 cells transfected with expression vectors, lysed in NP-40 buffer 24 h after transfection; IP with anti-p53 (DO-1) or anti-Flag; in Figures 2f and 5c cells treated with MG132 (40 uM) for 6 h

binding: no binding
B1: HA-tagged BAG5 (protein, UniProt Q9UL15 1-447)
chain: MDMGNQHPSISRLQEIQKEVKSVEQQVIGFSGLSDDKNYKKLERILTKQLFEIDSVDTEGKGDIQQARKRAAQETERLLKELEQNANHPHRIEIQNIFEEAQSLVREKIVPFYNGGNCVTDEFEEGIQDIILRLTHVKTGGKISLRKARYHTLTKICAVQEIIEDCMKKQPSLPLSEDAHPSVAKINFVMCEVNKARGVLIALLMGVNNNETCRHLSCVLSGLIADLDALDVCGRTEIRNYRREVVEDINKLLKYLDLEEEADTTKAFDLRQNHSILKIEKVLKRMREIKNELLQAQNPSELYLSSKTELQGLIGQLDEVSLEKNPCIREARRRAVIEVQTLITYIDLKEALEKRKLFACEEHPSHKAVWNVLGNLSEIQGEVLSFDGNRTDKNYIRLEELLTKQLLALDAVDPQGEEKCKAARKQAVRLAQNILSYLDLKSDEWEY
